# Results reported in the supplement of paper PMC3334620.
# In all, about 33,000 sequences were measured (“E-score (-0.5 to 0.5)”: median about -0.0034, highest 2% from about 0.25 on). The list shows a part of the results.
# Target: T1, Yap3 (UniProt P38749)
# T1 sequence: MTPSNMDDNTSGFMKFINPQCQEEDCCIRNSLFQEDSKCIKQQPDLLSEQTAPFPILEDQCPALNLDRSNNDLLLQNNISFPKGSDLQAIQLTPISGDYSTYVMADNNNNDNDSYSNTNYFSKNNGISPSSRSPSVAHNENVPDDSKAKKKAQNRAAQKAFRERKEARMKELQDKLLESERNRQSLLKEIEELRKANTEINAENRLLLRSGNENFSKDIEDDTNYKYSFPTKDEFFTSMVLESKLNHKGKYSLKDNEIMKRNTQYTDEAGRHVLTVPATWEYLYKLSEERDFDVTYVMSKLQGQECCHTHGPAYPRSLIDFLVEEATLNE
# Experiment: PBM E-score (8-mer binding enrichment) (E-score (-0.5 to 0.5)); higher = stronger / more preferred TF binding
# Settings: protein concentration: 100 nM; construct: GST-full length
# Procedure: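 Universal 'all 10-mer' protein binding microarrays (Agilent AMADID 015681) probed with GST-tagged S. cerevisiae TFs (full-length or DBD) made by in vitro transcription/translation (PURExpress), about 100-200 nM. Bound TF was detected with fluorescent anti-GST. Each ungapped 8-mer (which stands for itself and its reverse complement) is scored by the PBM enrichment score (E-score), a modified Wilcoxon-Mann-Whitney statistic from -0.5 to +0.5, computed with the Universal PBM Analysis Suite. Scale: above 0.35 generally sequence-specific binding.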
row,Sequence,PBM E-score
1,CAAAGGCG,-0.0428
2,TGGGGACA,-0.0974
3,GAGTCTCA,-0.0909
4,AGACATTA,0.0629
5,CGCGAACC,-0.0735
6,AAGTTTTC,0.109
7,CGACAAAG,0.118
8,ATTCCTGC,0.0399
9,CTGTTCTC,-0.0113
10,GCAAACAC,-0.0377
11,CCCTCGGC,-0.293
12,GAGTCTCC,-0.135
13,CAAATCTA,0.199
14,CAGAACGC,-0.063
15,GAACCCGA,-0.121
16,AAGCAGCG,-0.0118
17,ACAGTCGA,-0.128
18,AGGTAACA,0.132
19,GAATGAAC,0.0585
20,GCAATCCC,-0.118
21,AAAAGAAA,0.189
22,GCACTACC,0.0322

row,Sequence,PBM E-score
1,AAAGGGCA,-0.136
2,CAACTTCA,0.0635
3,TGGGAACA,0.122
4,ATAAGACA,0.151
5,CGCGTATC,0.162
6,AGGTAATC,0.107
7,ATTCCGGG,-0.0546
8,AGTTCTGA,0.0186
9,AGCCCACG,-0.174
10,ACAACAGC,0.0808
11,CTGCTTAC,0.0803
12,ACGACTTG,-0.0739
13,GTGTCTAA,-0.0246
14,ACGCAAAG,-0.138
15,AAAGTCCT,-0.105
16,AGACGAAG,-0.105
17,AAATGCAA,0.103
18,CGACGATA,-0.0311
19,AACGTGGA,0.0258
20,AAGGGAGT,-0.201
21,CATGAAGA,0.0514
22,GTCCTATA,-0.0462

row,Sequence,PBM E-score
1,CCACCGAG,-0.0958
2,GCGCGAGC,-0.184
3,CTATAGGC,-0.14
4,CTTGAAAG,0.00251
5,AGCTCAAG,-0.099
6,ACACTATG,-0.0355
7,GGGCAACC,-0.0204
8,ACTTGTAT,0.171
9,CCGTCGAA,-0.0215
10,AAATATTA,0.349
11,ACGAGGTA,0.0608
12,ATCAATCC,-0.0474
13,AGCATCAG,0.0377
14,ATAGTCCA,0.0381
15,CGTTCCCA,-0.127
16,CAACAATG,0.0789
17,CATATTTC,0.0493
18,CCGATTGC,0.189
19,GTGGACAC,-0.0256
20,CCCCATAG,-0.158
21,CTCACTCC,-0.136
22,GGGGTGAC,-0.131

# Look-ups from above.
# Under PBM E-score, GTGTCTAA reads -0.0246
# Under PBM E-score, CTCACTCC reads -0.136
# Under PBM E-score, CAACTTCA reads 0.0635
# Under PBM E-score, AAAAGAAA reads 0.189
# Under PBM E-score, AGCATCAG reads 0.0377
# Under PBM E-score, CCACCGAG reads -0.0958

# Further entries follow.

row,Sequence,PBM E-score
1,CTGAGTTC,0.052
2,CTAAGTCC,-0.258
3,GCACGCGA,0.00354
4,CCGCAAAC,0.0957
5,TACCCAAA,0.0436
6,GAATAAGA,0.109
7,CTCAGTAA,-0.0289
8,CTGGCCGC,-0.114
9,AATTAAGC,0.0716
10,CCTGAGTA,-0.111
11,CTTGGTGA,-0.0556
12,AAATGCTG,0.0677
13,AGCGATGG,-0.166
14,CTGGAATC,-0.0213
15,TCATTGAA,0.0474
16,GAGCGGGA,-0.166
17,CATTTCGA,0.178
18,CACAGGCC,-0.148
19,GGGCACAC,-0.268
20,ATAAACTG,0.105
21,CATAGCCC,-0.24
22,TAGAATAA,0.181

row,Sequence,PBM E-score
1,CCGGAAGG,-0.199
2,ACGTTGAG,-0.0204
3,AAGCCAAA,-0.0335
4,AACTATGC,0.0633
5,CTTTAACC,0.0375
6,AAATTATA,0.249
7,CATCTGGC,-0.066
8,AAAAGCGA,0.2
9,GTCCTTGA,-0.0515
10,ATCCCGCA,-0.0347
11,CCTATGCG,-0.0477
12,AACCGTCG,-0.0703
13,CATCGTGC,-0.0797
14,GCATCTTA,0.122
15,CTAACTGC,0.0427
16,CGCAGAGC,-0.0695
17,ATGCCCCC,-0.204
18,AACCCCCC,-0.443
19,ACGGCAAA,0.134
20,AGCCCCCC,-0.423
21,CAATATCG,0.0672
